Reference: patent publication US20210300943A1, “OGA INHIBITOR COMPOUNDS” (Janssen Pharmaceutica NV, priority 2018, published 2021)
The match of structure and compound is tentative.

Protein sequences, listed by entry. Tags and fused reporters are not part of them.
UniProt O60502, whole entry: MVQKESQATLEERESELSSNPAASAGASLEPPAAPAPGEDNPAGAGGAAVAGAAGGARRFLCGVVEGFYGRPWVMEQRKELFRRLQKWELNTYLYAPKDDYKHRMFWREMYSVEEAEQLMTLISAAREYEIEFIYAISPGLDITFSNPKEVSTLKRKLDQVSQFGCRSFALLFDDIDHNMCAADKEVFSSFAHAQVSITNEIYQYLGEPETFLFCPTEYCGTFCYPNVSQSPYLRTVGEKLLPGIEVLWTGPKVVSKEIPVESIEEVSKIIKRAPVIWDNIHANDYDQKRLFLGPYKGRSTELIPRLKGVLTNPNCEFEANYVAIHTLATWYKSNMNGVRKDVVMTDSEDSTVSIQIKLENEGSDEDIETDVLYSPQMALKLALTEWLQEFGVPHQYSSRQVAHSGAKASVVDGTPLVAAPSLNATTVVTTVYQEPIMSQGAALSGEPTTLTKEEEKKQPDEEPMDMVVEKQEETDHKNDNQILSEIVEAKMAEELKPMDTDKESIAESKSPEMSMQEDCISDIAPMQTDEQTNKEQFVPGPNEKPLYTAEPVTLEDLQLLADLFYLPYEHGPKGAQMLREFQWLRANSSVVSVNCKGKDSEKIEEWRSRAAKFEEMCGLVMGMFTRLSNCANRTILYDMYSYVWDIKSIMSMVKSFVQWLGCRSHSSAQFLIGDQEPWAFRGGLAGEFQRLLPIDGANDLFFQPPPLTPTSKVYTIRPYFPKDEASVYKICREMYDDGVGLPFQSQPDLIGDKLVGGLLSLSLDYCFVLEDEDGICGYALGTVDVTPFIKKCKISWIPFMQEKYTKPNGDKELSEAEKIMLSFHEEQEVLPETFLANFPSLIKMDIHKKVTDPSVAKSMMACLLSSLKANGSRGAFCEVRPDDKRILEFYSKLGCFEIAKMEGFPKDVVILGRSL

Tests used:
[1] = biological target: recombinant human Meningioma Expressed Antigen 5 (MGEA5), also referred to as O-GlcNAcase (OGA) (Homo sapiens, UniProt O60502); assay: OGA biochemical assay (inhibition of FM-GlcNAc hydrolysis, fluorescence)
Excerpt: The assay is based on the inhibition of the hydrolysis of fluorescein mono-β-D-N-Acetyl-Glucosamine (FM-GlcNAc) (Mariappa et al. 2015, Biochem J 470:255) by the recombinant human Meningioma Expressed Antigen 5 (MGEA5), also referred to as O-GlcNAcase (OGA). The hydrolysis FM-GlcNAc (Marker Gene technologies, cat #M1485) results in the formation of β-D-N-glucosamineacetate and fluorescein. The fluorescence of the latter can be measured at excitation wavelength 485 nm and emission wavelength 538 nm. An increase in enzyme activity results in an increase in fluorescence signal. Full length OGA enzyme was purchased at OnGene (cat #TP322411). The enzyme was stored in 25 mM Tris.HCl, pH 7.3, 100 mM glycine, 10% glycerol at −20° C. Thiamet G and GlcNAcStatin were tested as reference compounds (Yuzwa et al. 2008 Nature Chemical Biology 4:483; Yuzwa et al. 2012 Nature Chemical Biology 8:393). The assay was performed in 200 mM Citrate/phosphate buffer supplemented with 0.005% Tween-20. […]
50 nl of a compound dissolved in DMSO was dispensed on Black Proxiplate TM 384 Plus Assay plates (Perkin Elmer, #6008269) and 3 μl fl-OGA enzyme mix added subsequently. […] Fluorescence was quantified in the Thermo Scientific Fluoroskan Ascent or the PerkinElmer EnVision with excitation wavelength 485 nm and emission wavelength 538 nm. […]

[2] = biological target: OGA (Homo sapiens, UniProt O60502); assay: OGA cellular assay (ICC detection of O-GlcNAcylated proteins in HEK293 cells inducible for P301L mutant human Tau)
Protocol: HEK293 cells inducible for P301L mutant human Tau (isoform 2N4R) were established at Janssen. Thiamet-G was used for both plate validation (high control) and as reference compound (reference EC50 assay validation). OGA inhibition is evaluated through the immunocytochemical (ICC) detection of O-GlcNAcylated proteins by the use of a monoclonal antibody (CTD110.6; Cell Signaling, #9875) detecting 0-GlcNAcylated residues as previously described (Dorfmueller et al. 2010 Chemistry & biology, 17:1250). Inhibition of OGA will result in an increase of O-GlcNAcylated protein levels resulting in an increased signal in the experiment. Cell nuclei are stained with Hoechst to give a cell culture quality control and a rough estimate of immediate compounds toxicity, if any. ICC pictures are imaged with a Perkin Elmer Opera Phenix plate microscope and quantified with the provided software Perkin Elmer Harmony 4.1.
Cells were propagated in DMEM high Glucose (Sigma, #D5796) following standard procedures. 2 days before the cell assay cells are split, counted and seeded in Poly-D-Lysine (PDL) coated 96-wells (Greiner, #655946) plate at a cell density of 12,000 cells per cm^2 (4,000 cells per well) in 100 μl of Assay Medium (Low Glucose medium is used to reduce basal levels of GlcNAcylation) (Park et al. 2014 The Journal of biological chemistry 289:13519). […]

## COc1cc(C[C@H]2CCCN(C(C)c3cc4c(cc3F)OCCO4)C2)cc(C)n1 (stereo partly drawn)
[1]
  Enzymatic hOGA; pIC50: 8.2
[2]; 6 hours incubation
  Cellular hOGA; pEC50: 7.5
[2]; maximal effect, Thiamet G 200 uM as maximum
  Cellular Emax (%): 85%
